Literature values as cited in patent US20220315631A1, “STAPLED BETA-CATENIN LIGANDS” (Ohio State Innovation Foundation, priority 2019, published 2022).
Not every detail of the peptide structures is certain; ends, links or a residue may be inferred. Positions of bridges follow the written chain, without caps; N, C: chain ends. Non-standard residues stand in square brackets, D forms with d. Residues, ends and D or L forms follow the SMILES beside them. Chains are numbered I, II in the order given. 2Nal = N[C@@H](Cc1ccc2ccccc2c1)C(=O)O; Dap = NC[C@H](N)C(=O)O; AEEA = NCCOCCOCC(=O)O

Tested on: SW480 cells
Conditions: J. Med. Chem. 2019, 62, 10098; read-out: EC50, proliferation of SW480 cells; cited from earlier work

In the case of `CC[C@H](C)[C@@H]1NC(=O)[C@@H](NC(=O)[C@H](CCC(=O)O)NC(=O)[C@@H]2CCCN2C(=O)[C@H](Cc2ccc(O)cc2)NC(=O)CNC(=O)CNC(C)=O)CC(=O)NCCCC[C@@H](C(=O)N[C@@H](Cc2c[nH]cn2)C(=O)N[C@@H](CC(C)C)C(=O)N[C@@H](CCC(N)=O)C(=O)N[C@@H](CCCNC(=N)N)C(=O)N[C@H](C(=O)N[C@H](C(=O)N[C@@H](CC(C)C)C(=O)NCCOCCOCC(=O)NCCOCCOCC(=O)N[C@@H](CNC(=O)CC[C@@H]2NC(=O)[C@@H](CCCNC(=N)N)NC(=O)[C@H](CCCNC(=N)N)NC(=O)[C@@H](CCCNC(=N)N)NC(=O)[C@H](CCCNC(=N)N)NC(=O)[C@H](Cc3ccc4ccccc4c3)NC(=O)[C@@H](Cc3ccccc3)NC2=O)C(N)=O)[C@@H](C)CC)C(C)C)NC(=O)[C@H](CC(=O)O)NC(=O)[C@H](CC(C)C)NC1=O` [peptide 2] (I: Ac-GGYPEDILDKHLQRVIL[AEEA][AEEA][Dap]-NH2 / II: cyclo([2Nal]R[dR]R[dR]E[dF]); lactam I:6-I:10; amide I:20-II:6), the EC50 is listed as 1200 ± 400 nM.
